Assay results as given in patent US20240082402A1 (ELPIS BIOPHARMACEUTICALS, published 2024).
These are yes or no findings as the source states them, for the method shown. Some results given as binding are weak or reduced against the parent protein; the word gives no strength. For part of these data: Tags and fused reporters may be left off the sequences shown.

Amino acid sequences for entries named in this document (tags omitted). A change or cut given only in a name is not applied to a line headed by its entry. Chains listed by the source or under a name are the forms on record and can include a tag or linker. Residues count along the entry.
UniProt P15391, residues 20-291: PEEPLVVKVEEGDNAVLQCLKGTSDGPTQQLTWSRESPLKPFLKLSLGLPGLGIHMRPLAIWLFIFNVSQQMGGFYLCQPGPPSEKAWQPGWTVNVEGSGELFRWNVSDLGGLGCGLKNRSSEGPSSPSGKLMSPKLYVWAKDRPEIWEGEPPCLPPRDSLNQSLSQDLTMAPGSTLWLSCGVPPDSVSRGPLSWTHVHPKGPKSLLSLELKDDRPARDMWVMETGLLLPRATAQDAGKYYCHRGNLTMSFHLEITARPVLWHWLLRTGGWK
UniProt P20273: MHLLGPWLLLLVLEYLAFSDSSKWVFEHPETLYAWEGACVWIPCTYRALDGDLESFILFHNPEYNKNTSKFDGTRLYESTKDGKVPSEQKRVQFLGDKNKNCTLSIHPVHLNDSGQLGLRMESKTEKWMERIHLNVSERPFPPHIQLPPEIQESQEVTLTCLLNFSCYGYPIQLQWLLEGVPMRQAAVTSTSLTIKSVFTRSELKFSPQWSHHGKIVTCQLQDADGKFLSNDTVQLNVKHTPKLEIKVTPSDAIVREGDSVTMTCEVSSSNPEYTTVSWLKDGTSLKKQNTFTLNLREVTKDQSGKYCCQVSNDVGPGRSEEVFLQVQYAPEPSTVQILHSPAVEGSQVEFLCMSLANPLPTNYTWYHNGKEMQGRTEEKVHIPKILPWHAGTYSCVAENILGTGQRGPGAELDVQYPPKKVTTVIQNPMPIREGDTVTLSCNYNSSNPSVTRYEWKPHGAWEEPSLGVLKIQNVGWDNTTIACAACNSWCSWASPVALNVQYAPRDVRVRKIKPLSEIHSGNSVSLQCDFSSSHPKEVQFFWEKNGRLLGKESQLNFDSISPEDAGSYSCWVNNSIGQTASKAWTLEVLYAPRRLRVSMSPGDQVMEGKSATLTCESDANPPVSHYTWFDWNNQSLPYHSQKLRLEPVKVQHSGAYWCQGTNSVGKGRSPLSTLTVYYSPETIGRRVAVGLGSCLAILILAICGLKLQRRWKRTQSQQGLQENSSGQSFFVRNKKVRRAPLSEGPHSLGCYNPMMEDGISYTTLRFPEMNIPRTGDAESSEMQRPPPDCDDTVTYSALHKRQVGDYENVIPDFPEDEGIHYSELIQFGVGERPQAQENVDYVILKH
endogenous CD22 on Raji / Nalm6 cells (also on CD19 knock-out Raji cells): residues 20-847 of P20273
HIS tagged human CD22 recombinant protein: residues 20-687 of P20273

Tests used:
[1] = target: HIS tagged human CD19 recombinant protein (human) (UniProt P15391); test: ELISA, plate coated with His-tagged human CD19 at 2 ug/mL, anti-hFc HRP detection
[2] = target: human CD19 and human CD22 co-expressed on transfected K562 cells (human) (UniProt P15391+P20273); test: FACS, scFv at 200 nM on CD19/CD22 K562 cells, Alexa Fluor 647 anti-His detection, % positive cells
[3] = target: endogenous CD22 on Raji / Nalm6 cells (also on CD19 knock-out Raji cells) (human) (UniProt P20273); test: FACS, scFv-Fc on parental Raji and CD19 knock-out Raji cells
[4] = target: endogenous CD22 on Raji / Nalm6 cells (also on CD19 knock-out Raji cells) (human) (UniProt P20273); test: FACS, 25 nM scFv-Fc on Raji and Nalm6 cells, anti-hFc detection
[5] = target: HIS tagged human CD22 recombinant protein (human) (UniProt P20273); test: ELISA, plate coated with His-tagged human CD22 at 2 ug/mL, anti-hFc HRP detection

B1: anti-CD19 scFv-Fc (Fc fusion, not shown: a dimerising Fc or GST)
chain: QVQLQQWGAGLLKPSETLSLTCAVYGGSFSGYYWTWIRQPPGKGLEWIGEINHGGSSNYNPSLKSRVTISVDTSKKQFSLNLNSVTAADTAVYYCARGLGYRSGWYEVENAFDIWGQGTMVTVSSGGGGSGGGGSGGGGSQPVLTQPPSVSVAPGQTARITCGGNKIESRSVHWYQQKPGQAPVLVVYDDGARPSGIPERLSGSNSGDTATLTISRVEPGDEADYYCQVWDGSSVIFGGGTKLTVL
notes: also called anti-CD19-Fc
[1]
  binding: binds

B2: EPC-001-2 (scFv)
scFv (VH-linker-VL): QVQLVQSGAEVKRPGASVKVSCKASGYTFTSYGISWVRQAPGQGLEWMGWISAYNGNTNYAQKLQGRVTMTTDTSTSTAYMELRSLRSDDTAVYYCARDPGIAVAGTVDYWGQGTLVTVSSGGGGSGGGGSGGGGSEIVMTQSPATLSVSPGEGVTLSCRASQSVSSNLAWYQQRPGQAPRLLIYGASIKATDVPDRFSGGGSGTDFTLSISNVQSEDFAVYYCQQYHTWTPVTFGGGTKVEIK
notes: also called anti-CD22 monospecific scFv; parental anti-CD22 scFv
[2]
  binding: binds

B3: anti-CD22 scFv-Fc (Fc fusion, not shown: a dimerising Fc or GST)
chain: EVQLVQSGAEVKKPGASVKVSCKASGYTFTSYGISWVRQAPGQGLEWMGWISAYNGNTNYAQKLQGRVTMTTDTSTSTAYMELRSLRSDDTAVYYCARDYGDPSGDDYWGQGTLVTVSSGGGGSGGGGSGGGGSEIVLTQSPATLSVSPGEGVTLSCRASQSVSSNLAWYQQRPGQAPRLLIYGASIKATDVPDRFSGGGSGTDFTLSISNLQSEDFAVYYCQQYHTWPPVTFGGGTKVEIK
notes: also called Anti-CD22-Fc
[3]
  binding: binds
[4]
  binding: binds
[5]
  binding: binds

B4: EPC-001-4 (scFv)
scFv (VH-linker-VL): EVQLVQSGAEVKKPGASVKVSCKASGYTFTSYGISWVRQAPGQGLEWMGWISAYNGNTNYAQKLQGRVTMTTDTSTSTAYMELRSLRSDDTAVYYCARDYGDPSGDDYWGQGTLVTVSSGGGGSGGGGSGGGGSEIVLTQSPATLSVSPGEGVTLSCRASQSVSSNLAWYQQRPGQAPRLLIYGASIKATDVPDRFSGGGSGTDFTLSISNLQSEDFAVYYCQQYHTWPPVTFGGGTKVEIK
notes: as for B2
[2]
  binding: binds
